Measured values reported in patent US5545517A, “Selective metal ion detection using a photoluminescent indicator binding to a macromolecule-metal ion complex” (The United States of America as represented by the …, priority 1994, dated 1996).

Key:
[1] = system: carbonic anhydrase; settings: values of Chen and Kernohan, cited from earlier work
[2] = system: carbonic anhydrase; test: fluorescence lifetimes of free and enzyme-bound dansylamide; format: physicochemical; settings: measured in this laboratory

CN(C)c1cccc2c(S(N)(=O)=O)cccc12 [dansylamide]
fluorescence lifetime of bound dansylamide ([1]; bound): 22.1 nsec
fluorescence lifetime of free dansylamide ([1]; free): 3.9 nsec
fluorescence lifetime of bound dansylamide ([2]; bound to carbonic anhydrase): 20.3±0.2 nsec
fluorescence lifetime of free dansylamide ([2]; free in solution): 3.4±0.5 nsec

Like-named read-outs stand apart in the source and are kept apart here.
